Source: publication doi:10.1101/2021.11.02.466878
Numbering of substitutions follows the chain as printed. Numbers in names are those of the source. No constants are given. Whether binding was seen depends on the method and setting. Some results given as binding are weak or reduced against the parent protein; the word gives no strength. For part of these data: Tags and fused reporters may be left off the sequences shown. One block for each binder: values may come before it.

Amino acid sequences for entries named in this document (tags omitted).
UniProt O94913: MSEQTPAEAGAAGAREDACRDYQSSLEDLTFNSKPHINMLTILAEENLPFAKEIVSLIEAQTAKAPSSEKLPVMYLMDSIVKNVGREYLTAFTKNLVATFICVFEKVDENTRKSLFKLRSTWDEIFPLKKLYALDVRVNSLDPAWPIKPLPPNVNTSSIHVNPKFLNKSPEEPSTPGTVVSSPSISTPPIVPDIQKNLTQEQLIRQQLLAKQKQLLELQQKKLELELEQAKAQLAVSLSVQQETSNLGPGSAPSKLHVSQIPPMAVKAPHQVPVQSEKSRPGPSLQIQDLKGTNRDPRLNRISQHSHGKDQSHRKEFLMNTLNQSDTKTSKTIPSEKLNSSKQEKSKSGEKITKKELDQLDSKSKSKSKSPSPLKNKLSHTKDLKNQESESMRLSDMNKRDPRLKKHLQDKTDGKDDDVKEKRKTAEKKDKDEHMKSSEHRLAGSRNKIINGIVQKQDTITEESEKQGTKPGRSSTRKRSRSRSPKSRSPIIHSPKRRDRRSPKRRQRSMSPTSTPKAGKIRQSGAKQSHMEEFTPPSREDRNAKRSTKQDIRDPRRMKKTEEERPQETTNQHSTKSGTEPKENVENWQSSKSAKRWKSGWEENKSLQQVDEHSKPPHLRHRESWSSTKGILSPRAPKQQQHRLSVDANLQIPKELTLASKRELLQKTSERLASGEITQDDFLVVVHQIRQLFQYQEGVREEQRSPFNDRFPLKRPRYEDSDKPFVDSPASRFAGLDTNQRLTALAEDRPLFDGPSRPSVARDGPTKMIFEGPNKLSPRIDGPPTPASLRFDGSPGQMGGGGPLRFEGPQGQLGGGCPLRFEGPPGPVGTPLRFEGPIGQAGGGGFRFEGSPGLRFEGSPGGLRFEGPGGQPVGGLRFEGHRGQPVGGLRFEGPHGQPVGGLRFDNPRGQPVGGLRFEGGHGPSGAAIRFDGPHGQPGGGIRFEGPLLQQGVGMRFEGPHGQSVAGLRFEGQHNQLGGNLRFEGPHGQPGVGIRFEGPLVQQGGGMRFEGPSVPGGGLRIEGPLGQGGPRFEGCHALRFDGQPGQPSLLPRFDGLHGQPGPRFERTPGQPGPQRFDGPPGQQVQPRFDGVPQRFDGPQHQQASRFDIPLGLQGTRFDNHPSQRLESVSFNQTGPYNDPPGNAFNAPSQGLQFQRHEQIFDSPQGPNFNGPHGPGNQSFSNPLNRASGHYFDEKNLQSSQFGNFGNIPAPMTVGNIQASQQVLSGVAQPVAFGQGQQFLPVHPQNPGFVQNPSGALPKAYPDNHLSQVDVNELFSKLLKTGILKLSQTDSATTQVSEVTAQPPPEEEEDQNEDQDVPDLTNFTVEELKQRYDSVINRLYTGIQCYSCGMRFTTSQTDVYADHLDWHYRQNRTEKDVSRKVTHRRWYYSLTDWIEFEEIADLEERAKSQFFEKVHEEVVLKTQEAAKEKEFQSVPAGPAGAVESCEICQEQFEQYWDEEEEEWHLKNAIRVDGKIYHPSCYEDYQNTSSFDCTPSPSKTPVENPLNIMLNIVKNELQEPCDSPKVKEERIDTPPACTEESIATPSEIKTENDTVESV

Experiments:
[1] = biological target: T1, RBBP6_(1-335), FLAG-tagged, purified (human) (UniProt Q7Z6E9); assay: cross-linking
T1 sequence: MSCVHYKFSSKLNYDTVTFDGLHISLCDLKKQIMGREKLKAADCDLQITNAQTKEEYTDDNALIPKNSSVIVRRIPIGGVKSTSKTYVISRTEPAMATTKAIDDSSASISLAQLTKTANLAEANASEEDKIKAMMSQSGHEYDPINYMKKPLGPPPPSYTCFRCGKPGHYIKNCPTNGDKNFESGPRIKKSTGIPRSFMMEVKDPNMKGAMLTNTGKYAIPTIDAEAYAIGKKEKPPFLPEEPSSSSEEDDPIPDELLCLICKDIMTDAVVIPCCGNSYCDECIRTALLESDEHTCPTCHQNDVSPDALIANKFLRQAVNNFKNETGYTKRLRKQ

FLAG-tagged CstF64τ = biological target: T2, FLAG-tagged CstF64τ (UniProt Q9H0L4); assay: pull-down
T2 sequence: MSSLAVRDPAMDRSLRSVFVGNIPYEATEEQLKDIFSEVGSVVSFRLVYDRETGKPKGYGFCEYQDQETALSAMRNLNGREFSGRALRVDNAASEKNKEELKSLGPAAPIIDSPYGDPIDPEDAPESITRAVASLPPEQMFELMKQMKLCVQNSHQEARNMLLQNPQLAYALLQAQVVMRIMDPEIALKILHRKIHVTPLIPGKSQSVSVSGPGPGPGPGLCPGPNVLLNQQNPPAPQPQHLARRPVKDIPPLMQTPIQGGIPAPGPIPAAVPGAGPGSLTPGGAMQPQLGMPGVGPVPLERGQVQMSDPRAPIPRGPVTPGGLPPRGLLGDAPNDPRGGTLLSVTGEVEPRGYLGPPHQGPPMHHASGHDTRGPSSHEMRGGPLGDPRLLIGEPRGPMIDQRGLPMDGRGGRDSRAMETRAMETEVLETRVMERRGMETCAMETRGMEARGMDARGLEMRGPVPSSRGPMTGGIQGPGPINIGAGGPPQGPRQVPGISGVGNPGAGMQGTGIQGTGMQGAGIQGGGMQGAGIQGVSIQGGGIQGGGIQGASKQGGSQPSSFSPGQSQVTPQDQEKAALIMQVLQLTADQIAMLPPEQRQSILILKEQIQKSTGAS

hPcf11 (human) = hPcf11 (human) (UniProt O94913); assay: co-purification

binding [1]: binds
B1: symplekin, as subunit of purified recombinant CPSF or mCF3 (protein, UniProt Q92797 1-1274)
chain: MASGSGDSVTRRSVASQFFTQEEGPGIDGMTTSERVVDLLNQAALITNDSKITVLKQVQELIINKDPTLLDNFLDEIIAFQADKSIEVRKFVIGFIEEACKRDIELLLKLIANLNMLLRDENVNVVKKAILTMTQLYKVALQWMVKSRVISELQEACWDMVSAMAGDIILLLDSDNDGIRTHAIKFVEGLIVTLSPRMADSEIPRRQEHDISLDRIPRDHPYIQYNVLWEEGKAALEQLLKFMVHPAISSINLTTALGSLANIARQRPMFMSEVIQAYETLHANLPPTLAKSQVSSVRKNLKLHLLSVLKHPASLEFQAQITTLLVDLGTPQAEIARNMPSSKDTRKRPRDDSDSTLKKMKLEPNLGEDDEDKDLEPGPSGTSKASAQISGQSDTDITAEFLQPLLTPDNVANLVLISMVYLPEAMPASFQAIYTPVESAGTEAQIKHLARLMATQMTAAGLGPGVEQTKQCKEEPKEEKVVKTESVLIKRRLSAQGQAISVVGSLSSMSPLEEEAPQAKRRPEPIIPVTQPRLAGAGGRKKIFRLSDVLKPLTDAQVEAMKLGAVKRILRAEKAVACSGAAQVRIKILASLVTQFNSGLKAEVLSFILEDVRARLDLAFAWLYQEYNAYLAAGASGSLDKYEDCLIRLLSGLQEKPDQKDGIFTKVVLEAPLITESALEVVRKYCEDESRTYLGMSTLRDLIFKRPSRQFQYLHVLLDLSSHEKDKVRSQALLFIKRMYEKEQLREYVEKFALNYLQLLVHPNPPSVLFGADKDTEVAAPWTEETVKQCLYLYLALLPQNHKLIHELAAVYTEAIADIKRTVLRVIEQPIRGMGMNSPELLLLVENCPKGAETLVTRCLHSLTDKVPPSPELVKRVRDLYHKRLPDVRFLIPVLNGLEKKEVIQALPKLIKLNPIVVKEVFNRLLGTQHGEGNSALSPLNPGELLIALHNIDSVKCDMKSIIKATNLCFAERNVYTSEVLAVVMQQLMEQSPLPMLLMRTVIQSLTMYPRLGGFVMNILSRLIMKQVWKYPKVWEGFIKCCQRTKPQSFQVILQLPPQQLGAVFDKCPELREPLLAHVRSFTPHQQAHIPNSIMTILEASGKQEPEAKEAPAGPLEEDDLEPLTLAPAPAPRPPQDLIGLRLAQEKALKRQLEEEQKLKPGGVGAPSSSSPSPSPSARPGPPPSEEAMDFREEGPECETPGIFISMDDDSGLTEAALLDSSLEGPLPKETAAGGLTLKEERSPQTLAPVGEDAMKTPSPAAEDAREPEAKGNS

binding (FLAG-tagged CstF64τ): binds
B2: CstF77 (protein, UniProt Q12996 1-717)
chain: MSGDGATEQAAEYVPEKVKKAEKKLEENPYDLDAWSILIREAQNQPIDKARKTYERLVAQFPSSGRFWKLYIEAEIKAKNYDKVEKLFQRCLMKVLHIDLWKCYLSYVRETKGKLPSYKEKMAQAYDFALDKIGMEIMSYQIWVDYINFLKGVEAVGSYAENQRITAVRRVYQRGCVNPMINIEQLWRDYNKYEEGINIHLAKKMIEDRSRDYMNARRVAKEYETVMKGLDRNAPSVPPQNTPQEAQQVDMWKKYIQWEKSNPLRTEDQTLITKRVMFAYEQCLLVLGHHPDIWYEAAQYLEQSSKLLAEKGDMNNAKLFSDEAANIYERAISTLLKKNMLLYFAYADYEESRMKYEKVHSIYNRLLAIEDIDPTLVYIQYMKFARRAEGIKSGRMIFKKAREDTRTRHHVYVTAALMEYYCSKDKSVAFKIFELGLKKYGDIPEYVLAYIDYLSHLNEDNNTRVLFERVLTSGSLPPEKSGEIWARFLAFESNIGDLASILKVEKRRFTAFKEEYEGKETALLVDRYKFMDLYPCSASELKALGYKDVSRAKLAAIIPDPVVAPSIVPVLKDEVDRKPEYPKPDTQQMIPFQPRHLAPPGLHPVPGGVFPVPPAAVVLMKLLPPPICFQGPFVQVDELMEIFRRCKIPNTVEEAVRIITGGAPELAVEGNGPVESNAVLTKAVKRPNEDSDEDEEKGAVVPPVHDIYRARQQKRIR

binding (hPcf11 (human)): binds
B3: hClp1 R288A, R293K double mutant (enzyme, UniProt Q92989 1-425)
chain: MGEEANDDKKPTTKFELERETELRFEVEASQSVQLELLTGMAEIFGTELTRNKKFTFDAGAKVAVFTWHGCSVQLSGRTEVAYVSKDTPMLLYLNTHTALEQMRRQAEKEEERGPRVMVVGPTDVGKSTVCRLLLNYAVRLGRRPTYVELDVGQGSVSIPGTMGALYIERPADVEEGFSIQAPLVYHFGSTTPGTNIKLYNKITSRLADVFNQRCEVNRRASVSGCVINTCGWVKGSGYQALVHAASAFEVDVVVVLDQERLYNELKRDLPHFVRTVLLPKSGGVVEASKDFKRECRDERIREYFYGFRGCFYPHAFNVKFSDVKIYKVGAPTIPDSCLPLGMSQEDNQLKLVPVTPGRDMVHHLLSVSTAEGTEENLSETSVAGFIVVTSVDLEHQVFTVLSPAPRPLPKNFLLIMDIRFMDLK

binding (hPcf11 (human)): binds
B4: hClp1 E22A (enzyme, UniProt Q92989 1-425)
chain: B3 chain with E22A, A288R, K293R

binding (hPcf11 (human)): binds
B5: hClp1 E22Q (enzyme, UniProt Q92989 1-425)
chain: B3 chain with E22Q, A288R, K293R

binding (FLAG-tagged CstF64τ): binds
B6: CstF50 (protein, UniProt Q05048 1-431)
chain: MYRTKVGLKDRQQLYKLIISQLLYDGYISIANGLINEIKPQSVCAPSEQLLHLIKLGMENDDTAVQYAIGRSDTVAPGTGIDLEFDADVQTMSPEASEYETCYVTSHKGPCRVATYSRDGQLIATGSADASIKILDTERMLAKSAMPIEVMMNETAQQNMENHPVIRTLYDHVDEVTCLAFHPTEQILASGSRDYTLKLFDYSKPSAKRAFKYIQEAEMLRSISFHPSGDFILVGTQHPTLRLYDINTFQCFVSCNPQDQHTDAICSVNYNSSANMYVTGSKDGCIKLWDGVSNRCITTFEKAHDGAEVCSAIFSKNSKYILSSGKDSVAKLWEISTGRTLVRYTGAGLSGRQVHRTQAVFNHTEDYVLLPDERTISLCCWDSRTAERRNLLSLGHNNIVRCIVHSPTNPGFMTCSDDFRARFWYRRSTTD
